Publication PMC7819943, “Rice protein-binding microarrays: a tool to detect cis-acting elements near promoter regions in rice”
This is one part of the list.

Target: T1, OsSMF1 (Oryza sativa, UniProt Q6ZLB0 1-436)
T1 sequence: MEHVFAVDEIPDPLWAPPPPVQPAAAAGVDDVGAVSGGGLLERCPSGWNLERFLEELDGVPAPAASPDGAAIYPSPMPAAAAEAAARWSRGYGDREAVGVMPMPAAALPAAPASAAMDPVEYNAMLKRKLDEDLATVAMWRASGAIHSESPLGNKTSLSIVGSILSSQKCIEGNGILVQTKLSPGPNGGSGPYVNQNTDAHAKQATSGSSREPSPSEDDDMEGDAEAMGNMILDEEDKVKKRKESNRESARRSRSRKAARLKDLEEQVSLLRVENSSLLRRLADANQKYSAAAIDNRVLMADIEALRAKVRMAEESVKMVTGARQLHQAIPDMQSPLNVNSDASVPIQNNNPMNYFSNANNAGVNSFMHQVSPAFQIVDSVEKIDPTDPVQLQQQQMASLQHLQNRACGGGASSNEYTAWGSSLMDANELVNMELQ
Assay: protein-binding microarray (RPBM); PBS, 2% BSA, 51.3 ng/ul salmon testes DNA, 50 uM zinc acetate, 200 nM TF, 25 C, 1 h; high values mean tight binding
Conditions: protein: recombinant; tags: N-terminal polyhistidine and DsRed monomer fusion (pET32a); chain copies: 2; label: CyDye5-dUTP incorporated in the synthesized complementary strand; 3' TTTTT single-stranded linker to array surface; dsDNA, one strand shown
Procedure, shortened: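 Transcription factors were each fused at the N-terminus to a polyhistidine tag plus DsRed and expressed in E. coli BL21-CodonPlus before Ni–NTA purification. Binding to a double-stranded custom Agilent array was carried out with 200 nM protein at 25 °C for 1 h in PBS, 2% BSA, salmon testes DNA and 50 µM zinc acetate. The binding signal is per-feature fluorescence intensity, in arbitrary units, on an Axon 4000B scanner.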

First: TTCTTCCACGCCCCGCATCGCCGCCGCCGCCGGAGAGGGACGGAGTCACCTAGTGCAG
Second: GGCCTCAGCAAGCGACACGTCCGTGTCACACGCACGCACGCGGAGTCACCTAGTGCAG
The binding signal of the first is lower: 3520 fluorescence intensity (a.u.) for the first, 7470 fluorescence intensity (a.u.) for the second.

First: CCGGATGGCTTAGTCATCCAGTTGGAGAGGCTATTGGAGCCGGAGTCACCTAGTGCAG
Second: GCTAGGTAACGTACCATTGACAACAAGACACTCGTGGTGACGGAGTCACCTAGTGCAG
The binding signal of the first is higher: 6160 fluorescence intensity (a.u.) for the first, 4540 fluorescence intensity (a.u.) for the second.

First: CTGAAAGTCTGAGATGTGCCACGCCTCTTTTCTTCTGTCCCGGAGTCACCTAGTGCAG
Second: TGTTCTAACGAATTTCAGGCAACACGTGCGAAACAAACCACGGAGTCACCTAGTGCAG
The binding signal of the first is lower: 3460 fluorescence intensity (a.u.) for the first, 3610 fluorescence intensity (a.u.) for the second.

First: TTGATTGGTCACCATCAGCATAGCTACATGTAAGGAGCTACGGAGTCACCTAGTGCAG
Second: GATTTTGCATGCATCATGCATGGCCTGGCATTGTACCCTTCGGAGTCACCTAGTGCAG
The binding signal of the first is lower: 3220 fluorescence intensity (a.u.) for the first, 4170 fluorescence intensity (a.u.) for the second.

Compared with “CTCCCCGGCTTCTCTTCGCCGGCGACGACGATGCGGTGCGCGGAGTCACCTAGTGCAG”, “AAAACACATCATGGCCATGTTTGGTTCCATGGGCTAATTACGGAGTCACCTAGTGCAG” is lower in binding signal: 3340 fluorescence intensity (a.u.) for the first, 3280 fluorescence intensity (a.u.) for the second.

Going from “CGGCACAAGGAGTGGCAGCCACCCAGAGGCGCCCACCCTTCGGAGTCACCTAGTGCAG” to “CCTACCTTTCTATTCAAAAGAGAAAAGAAACAATGTTATCCGGAGTCACCTAGTGCAG”, the binding signal rises from 3820 fluorescence intensity (a.u.) to 9550 fluorescence intensity (a.u.).

Compared with “GGGTGTACTGTCCGCTGATGCTCGTGGGAGGCGGCGGCGGCGGAGTCACCTAGTGCAG”, “GTCTCATGTATCATCAACTTTCGATAAGTGGTTGCCTCTTCGGAGTCACCTAGTGCAG” is higher in binding signal: 3470 fluorescence intensity (a.u.) for the first, 3620 fluorescence intensity (a.u.) for the second.

First: TGAAATAATGCCAATGGTTGTCACTGCGTGACTTGTGAGACGGAGTCACCTAGTGCAG
Second: GCCAGCCTCCTCCTGCCACGTCGGTTCGCGTGCGCCACGGCGGAGTCACCTAGTGCAG
The binding signal of the first is lower: 3500 fluorescence intensity (a.u.) for the first, 13000 fluorescence intensity (a.u.) for the second.

First: TCTTCCCGACGTGGACCACCGCGCTCGCCGCGGTCACCGGCGGAGTCACCTAGTGCAG
Second: TATGCTGATTCAGATTGCTTGTGTTTGTCATTTTCCTCGTCGGAGTCACCTAGTGCAG
The binding signal of the first is lower: 4060 fluorescence intensity (a.u.) for the first, 5640 fluorescence intensity (a.u.) for the second.

Going from “GAGAGCGAGGGGTTGGTGGTGGTGTAGGGTTTTAGTTTACCGGAGTCACCTAGTGCAG” to “AGCTCGGGCTGACGTGTCGTGACGCGGGAGCGTCCACGCCCGGAGTCACCTAGTGCAG”, the binding signal rises from 4230 fluorescence intensity (a.u.) to 23300 fluorescence intensity (a.u.).

First: ACGGGGATGACTCCGATGACTCTCCTGGCCTCGCCGCCTCCGGAGTCACCTAGTGCAG
Second: CTCAGTTTTACGTGTACCTAGCTATATACGTAATGTGCCACGGAGTCACCTAGTGCAG
The binding signal of the first is lower: 5110 fluorescence intensity (a.u.) for the first, 5690 fluorescence intensity (a.u.) for the second.

Compared with “CTTCTGTTTACTAATTGGATTCTCTGTGTGAACTCTTACGCGGAGTCACCTAGTGCAG”, “TGAGCTCACACGTAGTACTCTACTACGGCTAAAATTCAATCGGAGTCACCTAGTGCAG” is higher in binding signal: 3150 fluorescence intensity (a.u.) for the first, 3290 fluorescence intensity (a.u.) for the second.

Compared with “CATGCGTGATAATCGTGCGGTTTCTTAAACCTGTTGTTCGCGGAGTCACCTAGTGCAG”, “ATTCACAGTGCTTACTTGCAGCTACTGCAATGACGCGTGCCGGAGTCACCTAGTGCAG” is higher in binding signal: 3160 fluorescence intensity (a.u.) for the first, 5640 fluorescence intensity (a.u.) for the second.

Compared with “GATATGTGGGTCCAGTGACAAATCATTTATCACCATCCGTCGGAGTCACCTAGTGCAG”, “AAATTAGCCTGTCACCATCATCACCAAAAGACGACCATAGCGGAGTCACCTAGTGCAG” is higher in binding signal: 3490 fluorescence intensity (a.u.) for the first, 4130 fluorescence intensity (a.u.) for the second.

First: ATCGCCGCCGACGTGGCGTTCTTCTTCTCGGCAACGCCGTCGGAGTCACCTAGTGCAG
Second: GCAGCCGCCATGGCTGCTCCTCCTCCACCTCATCGCCATCCGGAGTCACCTAGTGCAG
The binding signal of the first is higher: 13500 fluorescence intensity (a.u.) for the first, 6450 fluorescence intensity (a.u.) for the second.

Compared with “TTATCGGATATTGAAATAGATTATTTGCTTCACTCTTCCACGGAGTCACCTAGTGCAG”, “TTTTGCTGTGGTGGGAGTGGATTTGGAGGGCGTATCGGGGCGGAGTCACCTAGTGCAG” is higher in binding signal: 3280 fluorescence intensity (a.u.) for the first, 3980 fluorescence intensity (a.u.) for the second.

First: TTCCCTCGGAAGCCTTAAAAGTTGAACTTGTGCACTACTACGGAGTCACCTAGTGCAG
Second: GATGGGCCCCACGTGTCATACATGCCCGCCTTACTTCGCGCGGAGTCACCTAGTGCAG
The binding signal of the first is higher: 19700 fluorescence intensity (a.u.) for the first, 13800 fluorescence intensity (a.u.) for the second.

First: GACGGGTTCTATGGGATGCCGTCATCGGTGAGCCATCCAGCGGAGTCACCTAGTGCAG
Second: GGAGGAGTCGCGGACGCGATCCGTTTCGCCCGTGACGCGGCGGAGTCACCTAGTGCAG
The binding signal of the first is lower: 4690 fluorescence intensity (a.u.) for the first, 9210 fluorescence intensity (a.u.) for the second.

First: CGCACATCCATCCACGTCATCGATCCGCGCCGCGTGCCTTCGGAGTCACCTAGTGCAG
Second: GCAATTCAGTGAACCACGAAAGGTAGCCTGCCTTGGCTGCCGGAGTCACCTAGTGCAG
The binding signal of the first is higher: 28400 fluorescence intensity (a.u.) for the first, 3200 fluorescence intensity (a.u.) for the second.

First: GAAAATACTTACTAGATTGCCACGCGTACGCCACGTAGGACGGAGTCACCTAGTGCAG
Second: TAATTTTGAAGCCTGGTCCAGTCCACGCCACCAACGGACGCGGAGTCACCTAGTGCAG
The binding signal of the first is higher: 30700 fluorescence intensity (a.u.) for the first, 3880 fluorescence intensity (a.u.) for the second.

Going from “TGCTGCCTTGTACATGTCTCCAACAACAAGAAGAAAGTCACGGAGTCACCTAGTGCAG” to “ACACAGCCTAACTAACAAAACCGTTGACTCACCAATCGCCCGGAGTCACCTAGTGCAG”, the binding signal rises from 3240 fluorescence intensity (a.u.) to 7900 fluorescence intensity (a.u.).
